Assay [1] deals with T1, LIM domain binding protein 1 (Ldb1), endogenous in E12.5 cortex (mouse (endogenous in E12.5 cortex)) (UniProt P70662).
T1 sequence: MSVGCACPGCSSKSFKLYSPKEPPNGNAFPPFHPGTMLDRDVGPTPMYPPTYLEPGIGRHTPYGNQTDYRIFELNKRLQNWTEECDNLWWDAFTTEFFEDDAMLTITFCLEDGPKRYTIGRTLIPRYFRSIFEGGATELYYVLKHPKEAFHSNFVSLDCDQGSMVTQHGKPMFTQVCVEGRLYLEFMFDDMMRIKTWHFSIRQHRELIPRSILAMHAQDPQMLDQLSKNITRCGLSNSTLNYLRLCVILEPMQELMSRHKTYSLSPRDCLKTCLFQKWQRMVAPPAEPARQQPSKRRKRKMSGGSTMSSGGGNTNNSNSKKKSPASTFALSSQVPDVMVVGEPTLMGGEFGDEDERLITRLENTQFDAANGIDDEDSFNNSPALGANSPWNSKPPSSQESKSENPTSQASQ
Kind of assay: co-IP.

Chains of the proteins cited; added tags and fusions are not shown.
UniProt Q04744: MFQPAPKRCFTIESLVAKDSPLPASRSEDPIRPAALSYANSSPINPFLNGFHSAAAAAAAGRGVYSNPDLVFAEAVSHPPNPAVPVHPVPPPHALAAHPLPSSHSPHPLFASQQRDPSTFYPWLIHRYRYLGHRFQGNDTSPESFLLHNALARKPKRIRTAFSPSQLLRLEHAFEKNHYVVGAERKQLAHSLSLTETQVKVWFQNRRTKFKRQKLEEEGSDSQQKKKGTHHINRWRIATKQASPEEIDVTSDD
UniProt P70288: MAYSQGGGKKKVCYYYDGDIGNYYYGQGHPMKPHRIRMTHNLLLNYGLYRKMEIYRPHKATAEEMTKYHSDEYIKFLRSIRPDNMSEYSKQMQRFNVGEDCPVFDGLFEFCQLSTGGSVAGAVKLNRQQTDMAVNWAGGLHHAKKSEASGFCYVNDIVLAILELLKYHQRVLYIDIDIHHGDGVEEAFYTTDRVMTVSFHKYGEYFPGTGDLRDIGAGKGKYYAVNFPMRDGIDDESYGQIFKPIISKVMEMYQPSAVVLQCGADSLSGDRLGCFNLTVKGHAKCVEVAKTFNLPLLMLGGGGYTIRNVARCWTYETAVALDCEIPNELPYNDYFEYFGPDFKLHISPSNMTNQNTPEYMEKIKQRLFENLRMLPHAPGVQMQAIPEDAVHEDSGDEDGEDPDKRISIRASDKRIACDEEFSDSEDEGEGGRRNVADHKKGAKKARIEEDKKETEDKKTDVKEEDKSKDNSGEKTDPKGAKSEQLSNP
UniProt Q8K4B0: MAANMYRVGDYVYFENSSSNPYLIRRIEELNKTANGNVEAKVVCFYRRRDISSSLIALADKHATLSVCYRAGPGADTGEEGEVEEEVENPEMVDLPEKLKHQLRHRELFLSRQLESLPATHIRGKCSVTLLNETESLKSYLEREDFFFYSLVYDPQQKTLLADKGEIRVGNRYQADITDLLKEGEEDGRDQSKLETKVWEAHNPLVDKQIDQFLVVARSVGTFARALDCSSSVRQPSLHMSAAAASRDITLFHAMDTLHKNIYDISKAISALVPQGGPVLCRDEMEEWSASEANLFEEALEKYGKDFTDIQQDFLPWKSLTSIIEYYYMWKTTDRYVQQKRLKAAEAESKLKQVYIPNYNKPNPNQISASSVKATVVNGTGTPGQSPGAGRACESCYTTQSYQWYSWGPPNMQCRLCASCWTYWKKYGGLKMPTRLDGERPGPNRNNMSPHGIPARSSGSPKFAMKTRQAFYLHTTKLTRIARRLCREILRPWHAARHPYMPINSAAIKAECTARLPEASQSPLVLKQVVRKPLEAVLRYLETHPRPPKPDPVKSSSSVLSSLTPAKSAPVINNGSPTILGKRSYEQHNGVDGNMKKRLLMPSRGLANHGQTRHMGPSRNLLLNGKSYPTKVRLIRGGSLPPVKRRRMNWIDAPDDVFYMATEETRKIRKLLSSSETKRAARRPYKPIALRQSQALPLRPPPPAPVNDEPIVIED

In assay [2] the target is Flag-Emx2 (pCS2-Flag-Emx2) (UniProt Q04744). Kind of assay: co-IP.

We go through 3 molecules from doi:10.1101/2024.09.19.613943.

No constants are given. Whether binding was seen depends on the method and setting. In cells and extracts the contact can be indirect. Some results given as binding are weak or reduced against the parent protein; the word gives no strength. For part of these data: Sequences can lack the tags named with a protein.

For HDAC2 (from UniProt P70288 1-488), in assay [1], the binding result is listed as “binds”.
As for MTA1 (from UniProt Q8K4B0 1-715), in assay [1], the binding entry is given as “binds”.

B1: HA-Flag-Ldb1 (protein, UniProt P70662 1-411)
chain: MSVGCACPGCSSKSFKLYSPKEPPNGNAFPPFHPGTMLDRDVGPTPMYPPTYLEPGIGRHTPYGNQTDYRIFELNKRLQNWTEECDNLWWDAFTTEFFEDDAMLTITFCLEDGPKRYTIGRTLIPRYFRSIFEGGATELYYVLKHPKEAFHSNFVSLDCDQGSMVTQHGKPMFTQVCVEGRLYLEFMFDDMMRIKTWHFSIRQHRELIPRSILAMHAQDPQMLDQLSKNITRCGLSNSTLNYLRLCVILEPMQELMSRHKTYSLSPRDCLKTCLFQKWQRMVAPPAEPARQQPSKRRKRKMSGGSTMSSGGGNTNNSNSKKKSPASTFALSSQVPDVMVVGEPTLMGGEFGDEDERLITRLENTQFDAANGIDDEDSFNNSPALGANSPWNSKPPSSQESKSENPTSQASQ
As for B1, in assay [2], the binding result is on record as “binds”.
